Assay results published in paper PMC4966312.
Numbering of substitutions follows the chain as printed. These are yes or no findings as the source states them, for the method shown. For part of these data: Binding calls can cover weak binding; strength is not graded here. Sequences can lack the tags named with a protein.

Assays:
Test in all cases: two-hybrid; NSMCE3 (WT or mutated) fused to the Gal4 DNA-binding domain, NSMCE1 or NSMCE4 fused to the Gal4-activation domain, coexpressed in yeast; scored on His- plates with 5 mM 3-amino-1,2,4-triazol; 30°C
[1] = biological target: T1, NSMCE3 Pro209Leu fused to the Gal4 DNA-binding domain (human) (UniProt Q96MG7)
T1 sequence: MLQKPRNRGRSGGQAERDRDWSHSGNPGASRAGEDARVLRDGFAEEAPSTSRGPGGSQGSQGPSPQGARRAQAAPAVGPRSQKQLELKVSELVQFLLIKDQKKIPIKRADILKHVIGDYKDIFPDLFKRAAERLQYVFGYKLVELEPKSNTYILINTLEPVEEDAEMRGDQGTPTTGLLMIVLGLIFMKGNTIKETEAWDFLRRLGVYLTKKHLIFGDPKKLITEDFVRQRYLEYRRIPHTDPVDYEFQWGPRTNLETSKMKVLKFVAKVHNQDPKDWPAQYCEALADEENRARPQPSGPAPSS

[2] = biological target: T2, NSMCE3 (WT) fused to the Gal4 DNA-binding domain (human) (UniProt Q96MG7)
T2 sequence: T1 sequence with L209P

[3] = biological target: T3, NSMCE3 Leu264Phe fused to the Gal4 DNA-binding domain (human) (UniProt Q96MG7)
T3 sequence: T1 sequence with L209P, L264F

binding [1]: no binding | binding [2]: binds | binding [3]: no binding
Substance: WT NSMCE4 fused to the Gal4-activation domain
